{
  "sequences": {"note": "Sequences of proteins named here, by UniProt entry; tags and fusion partners are left off. A change or cut given only in a name is not applied to a line headed by its entry.", "UniProt Q9JKS6": "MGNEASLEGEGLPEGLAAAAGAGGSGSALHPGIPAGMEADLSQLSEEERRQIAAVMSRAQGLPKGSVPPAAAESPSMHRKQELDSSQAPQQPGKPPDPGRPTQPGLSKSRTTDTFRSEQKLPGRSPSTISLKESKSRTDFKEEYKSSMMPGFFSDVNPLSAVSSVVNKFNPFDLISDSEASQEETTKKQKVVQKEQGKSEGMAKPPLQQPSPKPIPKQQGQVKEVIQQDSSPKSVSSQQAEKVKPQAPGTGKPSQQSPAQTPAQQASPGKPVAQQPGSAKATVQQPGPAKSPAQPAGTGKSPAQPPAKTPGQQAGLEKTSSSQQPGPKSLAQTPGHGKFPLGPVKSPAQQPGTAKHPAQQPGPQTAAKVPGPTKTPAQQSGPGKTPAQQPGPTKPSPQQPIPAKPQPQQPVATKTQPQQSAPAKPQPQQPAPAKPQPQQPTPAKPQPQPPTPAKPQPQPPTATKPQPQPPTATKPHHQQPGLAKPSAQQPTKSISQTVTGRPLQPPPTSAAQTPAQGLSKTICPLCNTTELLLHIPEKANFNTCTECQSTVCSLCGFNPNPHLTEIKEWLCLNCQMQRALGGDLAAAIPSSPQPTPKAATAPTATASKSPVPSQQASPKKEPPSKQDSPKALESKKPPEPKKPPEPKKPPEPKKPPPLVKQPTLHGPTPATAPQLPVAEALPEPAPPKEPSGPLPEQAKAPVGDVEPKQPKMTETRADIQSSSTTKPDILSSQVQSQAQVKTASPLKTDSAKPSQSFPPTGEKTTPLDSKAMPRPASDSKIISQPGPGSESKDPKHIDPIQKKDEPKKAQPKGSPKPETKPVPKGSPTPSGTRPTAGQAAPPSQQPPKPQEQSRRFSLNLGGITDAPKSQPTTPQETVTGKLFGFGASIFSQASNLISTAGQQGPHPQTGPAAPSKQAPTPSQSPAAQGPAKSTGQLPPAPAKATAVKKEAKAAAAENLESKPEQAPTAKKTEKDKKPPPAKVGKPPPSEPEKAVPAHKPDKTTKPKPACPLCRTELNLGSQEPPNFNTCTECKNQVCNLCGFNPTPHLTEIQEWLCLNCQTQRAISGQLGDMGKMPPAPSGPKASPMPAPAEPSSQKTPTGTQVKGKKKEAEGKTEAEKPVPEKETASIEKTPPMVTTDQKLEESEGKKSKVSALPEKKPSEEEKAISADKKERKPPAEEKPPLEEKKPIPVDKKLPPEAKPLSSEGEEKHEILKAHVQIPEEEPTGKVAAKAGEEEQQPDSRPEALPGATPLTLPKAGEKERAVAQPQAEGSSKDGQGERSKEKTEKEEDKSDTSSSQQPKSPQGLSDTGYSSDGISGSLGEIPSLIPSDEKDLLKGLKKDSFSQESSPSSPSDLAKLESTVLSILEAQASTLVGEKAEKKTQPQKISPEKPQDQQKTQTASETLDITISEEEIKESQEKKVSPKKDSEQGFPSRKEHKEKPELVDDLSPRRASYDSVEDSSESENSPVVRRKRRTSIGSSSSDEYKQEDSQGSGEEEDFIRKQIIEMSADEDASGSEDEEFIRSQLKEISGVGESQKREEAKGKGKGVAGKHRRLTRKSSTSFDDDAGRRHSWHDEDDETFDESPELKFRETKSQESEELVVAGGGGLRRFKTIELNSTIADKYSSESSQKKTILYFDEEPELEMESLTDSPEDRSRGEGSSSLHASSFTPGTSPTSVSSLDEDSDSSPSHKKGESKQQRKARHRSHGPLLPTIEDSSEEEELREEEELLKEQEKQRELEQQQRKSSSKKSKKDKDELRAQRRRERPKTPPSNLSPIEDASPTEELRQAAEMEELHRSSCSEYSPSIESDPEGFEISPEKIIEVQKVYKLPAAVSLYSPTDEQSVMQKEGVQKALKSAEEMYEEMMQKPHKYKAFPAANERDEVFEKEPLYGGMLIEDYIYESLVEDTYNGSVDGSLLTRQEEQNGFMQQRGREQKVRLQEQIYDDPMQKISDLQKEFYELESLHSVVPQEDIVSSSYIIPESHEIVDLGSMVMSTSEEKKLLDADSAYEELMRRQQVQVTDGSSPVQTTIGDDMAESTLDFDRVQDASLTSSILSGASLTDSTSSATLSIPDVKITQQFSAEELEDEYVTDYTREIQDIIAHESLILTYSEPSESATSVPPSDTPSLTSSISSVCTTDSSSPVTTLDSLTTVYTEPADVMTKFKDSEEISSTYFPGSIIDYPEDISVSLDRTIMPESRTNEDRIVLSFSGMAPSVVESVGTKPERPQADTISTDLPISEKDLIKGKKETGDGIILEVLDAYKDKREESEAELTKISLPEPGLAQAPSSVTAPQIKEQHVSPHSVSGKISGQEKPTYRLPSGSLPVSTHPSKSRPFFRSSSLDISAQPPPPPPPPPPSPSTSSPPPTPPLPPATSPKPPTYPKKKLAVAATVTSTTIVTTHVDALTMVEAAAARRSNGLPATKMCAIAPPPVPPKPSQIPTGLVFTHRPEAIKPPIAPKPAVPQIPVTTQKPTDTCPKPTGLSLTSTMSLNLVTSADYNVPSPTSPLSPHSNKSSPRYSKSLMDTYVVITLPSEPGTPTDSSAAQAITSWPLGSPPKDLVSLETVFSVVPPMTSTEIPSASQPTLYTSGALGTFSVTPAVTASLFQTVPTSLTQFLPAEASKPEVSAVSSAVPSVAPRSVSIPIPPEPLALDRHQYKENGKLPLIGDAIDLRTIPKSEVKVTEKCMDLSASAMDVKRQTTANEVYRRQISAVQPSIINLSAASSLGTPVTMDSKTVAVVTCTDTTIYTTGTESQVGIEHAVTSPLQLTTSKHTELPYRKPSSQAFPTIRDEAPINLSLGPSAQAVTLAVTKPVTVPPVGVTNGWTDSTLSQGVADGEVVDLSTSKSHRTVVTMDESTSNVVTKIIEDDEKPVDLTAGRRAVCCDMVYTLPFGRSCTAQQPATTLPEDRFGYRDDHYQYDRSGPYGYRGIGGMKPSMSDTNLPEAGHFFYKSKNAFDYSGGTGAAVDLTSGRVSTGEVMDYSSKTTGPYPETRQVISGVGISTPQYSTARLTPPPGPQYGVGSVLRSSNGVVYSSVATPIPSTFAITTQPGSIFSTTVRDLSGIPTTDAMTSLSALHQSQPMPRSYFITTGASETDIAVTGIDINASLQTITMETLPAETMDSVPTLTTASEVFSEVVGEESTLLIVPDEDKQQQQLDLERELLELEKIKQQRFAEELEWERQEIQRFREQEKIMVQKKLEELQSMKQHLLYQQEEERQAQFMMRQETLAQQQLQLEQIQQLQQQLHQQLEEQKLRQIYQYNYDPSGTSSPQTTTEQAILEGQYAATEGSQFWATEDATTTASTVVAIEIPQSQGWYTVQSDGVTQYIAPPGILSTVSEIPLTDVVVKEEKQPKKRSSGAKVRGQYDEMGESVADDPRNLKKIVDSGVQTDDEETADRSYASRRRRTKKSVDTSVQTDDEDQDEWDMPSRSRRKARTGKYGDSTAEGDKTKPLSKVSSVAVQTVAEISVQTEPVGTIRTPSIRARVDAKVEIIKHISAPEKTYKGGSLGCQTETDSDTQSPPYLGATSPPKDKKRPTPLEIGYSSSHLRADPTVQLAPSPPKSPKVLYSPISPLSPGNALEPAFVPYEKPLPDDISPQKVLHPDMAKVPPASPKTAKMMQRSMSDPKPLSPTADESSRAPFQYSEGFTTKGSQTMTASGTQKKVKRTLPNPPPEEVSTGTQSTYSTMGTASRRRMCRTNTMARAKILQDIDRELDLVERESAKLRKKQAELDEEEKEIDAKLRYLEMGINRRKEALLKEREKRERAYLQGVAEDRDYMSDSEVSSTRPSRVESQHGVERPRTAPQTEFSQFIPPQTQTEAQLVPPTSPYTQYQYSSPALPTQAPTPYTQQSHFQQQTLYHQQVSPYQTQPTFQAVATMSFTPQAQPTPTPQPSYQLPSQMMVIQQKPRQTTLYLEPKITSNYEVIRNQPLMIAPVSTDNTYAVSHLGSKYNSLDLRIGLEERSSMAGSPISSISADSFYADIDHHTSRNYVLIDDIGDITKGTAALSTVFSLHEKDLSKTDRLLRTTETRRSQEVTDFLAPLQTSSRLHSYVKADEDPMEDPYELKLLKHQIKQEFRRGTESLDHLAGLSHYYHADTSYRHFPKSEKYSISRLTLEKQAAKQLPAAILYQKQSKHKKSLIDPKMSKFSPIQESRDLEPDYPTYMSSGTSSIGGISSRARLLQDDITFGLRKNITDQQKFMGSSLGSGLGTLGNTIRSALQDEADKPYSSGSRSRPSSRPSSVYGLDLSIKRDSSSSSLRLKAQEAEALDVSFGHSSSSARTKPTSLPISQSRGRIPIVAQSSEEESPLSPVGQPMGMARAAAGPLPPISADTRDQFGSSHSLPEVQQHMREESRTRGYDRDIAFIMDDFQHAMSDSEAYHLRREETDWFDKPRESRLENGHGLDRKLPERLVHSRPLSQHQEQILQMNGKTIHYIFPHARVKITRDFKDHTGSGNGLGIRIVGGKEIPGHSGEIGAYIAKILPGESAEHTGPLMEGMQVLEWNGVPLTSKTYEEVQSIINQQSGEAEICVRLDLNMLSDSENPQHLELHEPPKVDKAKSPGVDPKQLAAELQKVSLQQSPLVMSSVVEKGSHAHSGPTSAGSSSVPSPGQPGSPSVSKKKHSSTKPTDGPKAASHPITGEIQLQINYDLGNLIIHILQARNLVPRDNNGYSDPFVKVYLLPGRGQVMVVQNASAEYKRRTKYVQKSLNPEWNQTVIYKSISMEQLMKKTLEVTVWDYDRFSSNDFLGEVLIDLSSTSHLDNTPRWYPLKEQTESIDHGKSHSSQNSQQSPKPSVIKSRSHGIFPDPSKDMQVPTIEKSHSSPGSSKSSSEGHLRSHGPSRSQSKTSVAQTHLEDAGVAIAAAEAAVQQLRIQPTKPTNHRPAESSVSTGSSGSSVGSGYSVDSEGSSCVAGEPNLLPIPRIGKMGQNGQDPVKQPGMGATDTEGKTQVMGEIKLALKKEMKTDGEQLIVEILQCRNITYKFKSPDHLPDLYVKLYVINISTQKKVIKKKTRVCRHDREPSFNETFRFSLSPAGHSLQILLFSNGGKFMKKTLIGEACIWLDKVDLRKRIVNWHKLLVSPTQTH", "UniProt Q8BPM0": "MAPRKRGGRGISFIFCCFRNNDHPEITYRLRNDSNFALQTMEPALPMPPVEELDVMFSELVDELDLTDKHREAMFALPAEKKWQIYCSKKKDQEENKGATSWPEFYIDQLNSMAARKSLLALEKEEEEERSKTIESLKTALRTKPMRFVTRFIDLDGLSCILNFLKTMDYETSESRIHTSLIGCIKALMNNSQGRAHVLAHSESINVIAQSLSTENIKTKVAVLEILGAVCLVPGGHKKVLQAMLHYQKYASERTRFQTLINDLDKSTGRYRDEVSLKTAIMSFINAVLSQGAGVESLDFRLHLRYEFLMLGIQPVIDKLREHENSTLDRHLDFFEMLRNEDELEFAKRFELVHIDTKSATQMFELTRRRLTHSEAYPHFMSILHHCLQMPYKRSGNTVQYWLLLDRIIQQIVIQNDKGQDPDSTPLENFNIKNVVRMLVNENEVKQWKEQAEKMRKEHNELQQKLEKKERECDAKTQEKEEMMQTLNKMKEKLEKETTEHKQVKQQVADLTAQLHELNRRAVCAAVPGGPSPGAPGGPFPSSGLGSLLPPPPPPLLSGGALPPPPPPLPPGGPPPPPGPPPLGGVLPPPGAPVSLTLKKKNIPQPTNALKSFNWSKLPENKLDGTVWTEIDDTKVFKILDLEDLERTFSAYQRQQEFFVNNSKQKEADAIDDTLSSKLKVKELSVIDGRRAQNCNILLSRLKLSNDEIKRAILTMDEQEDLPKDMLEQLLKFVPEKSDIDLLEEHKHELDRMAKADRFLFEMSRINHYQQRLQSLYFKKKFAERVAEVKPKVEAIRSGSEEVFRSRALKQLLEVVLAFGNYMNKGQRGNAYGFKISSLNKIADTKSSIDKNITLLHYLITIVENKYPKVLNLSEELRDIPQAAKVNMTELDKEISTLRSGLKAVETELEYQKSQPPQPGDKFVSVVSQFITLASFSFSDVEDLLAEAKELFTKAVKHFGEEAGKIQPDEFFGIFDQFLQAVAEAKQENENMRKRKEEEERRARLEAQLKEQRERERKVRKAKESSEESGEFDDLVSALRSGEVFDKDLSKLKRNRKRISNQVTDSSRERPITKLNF"},
  "source": "paper PMC4405365",
  "molecular_target": "EGFP-Pclo_(3802-4880) (UniProt Q9JKS6)",
  "experiment": "co-IP; COS7 cells co-transfected, lysed in 1% Triton X-100 in 1X PBS with protease inhibitors, 4°C; EGFP antibody or Piccolo 1980-2553 antibody with Protein A/G; Western blot",
  "note": "Results are given in words; binding and its absence hold for the method and conditions named. In cells and extracts the contact can be indirect.",
  "data": [
    {"substance": "Myc-Daam1 (from UniProt Q8BPM0 1-1077)", "values": [
      {"measurement": "binding", "value": "no binding"}
    ]}
  ]
}
